According to patent publication US20230065153A1 (HIROSHIMA UNIVERSITY, published 2023):
Results are given in words; binding and its absence hold for the method and conditions named. Some binding calls cover weakened binding; strength is not graded here.

What was measured:
[1] = molecular target: T1, human integrin α11 (human) (UniProt Q9UKX5); experiment: FACS, IgG 5 µg/ml on human integrin α11 introduced CHO cells
T1 sequence (looked up): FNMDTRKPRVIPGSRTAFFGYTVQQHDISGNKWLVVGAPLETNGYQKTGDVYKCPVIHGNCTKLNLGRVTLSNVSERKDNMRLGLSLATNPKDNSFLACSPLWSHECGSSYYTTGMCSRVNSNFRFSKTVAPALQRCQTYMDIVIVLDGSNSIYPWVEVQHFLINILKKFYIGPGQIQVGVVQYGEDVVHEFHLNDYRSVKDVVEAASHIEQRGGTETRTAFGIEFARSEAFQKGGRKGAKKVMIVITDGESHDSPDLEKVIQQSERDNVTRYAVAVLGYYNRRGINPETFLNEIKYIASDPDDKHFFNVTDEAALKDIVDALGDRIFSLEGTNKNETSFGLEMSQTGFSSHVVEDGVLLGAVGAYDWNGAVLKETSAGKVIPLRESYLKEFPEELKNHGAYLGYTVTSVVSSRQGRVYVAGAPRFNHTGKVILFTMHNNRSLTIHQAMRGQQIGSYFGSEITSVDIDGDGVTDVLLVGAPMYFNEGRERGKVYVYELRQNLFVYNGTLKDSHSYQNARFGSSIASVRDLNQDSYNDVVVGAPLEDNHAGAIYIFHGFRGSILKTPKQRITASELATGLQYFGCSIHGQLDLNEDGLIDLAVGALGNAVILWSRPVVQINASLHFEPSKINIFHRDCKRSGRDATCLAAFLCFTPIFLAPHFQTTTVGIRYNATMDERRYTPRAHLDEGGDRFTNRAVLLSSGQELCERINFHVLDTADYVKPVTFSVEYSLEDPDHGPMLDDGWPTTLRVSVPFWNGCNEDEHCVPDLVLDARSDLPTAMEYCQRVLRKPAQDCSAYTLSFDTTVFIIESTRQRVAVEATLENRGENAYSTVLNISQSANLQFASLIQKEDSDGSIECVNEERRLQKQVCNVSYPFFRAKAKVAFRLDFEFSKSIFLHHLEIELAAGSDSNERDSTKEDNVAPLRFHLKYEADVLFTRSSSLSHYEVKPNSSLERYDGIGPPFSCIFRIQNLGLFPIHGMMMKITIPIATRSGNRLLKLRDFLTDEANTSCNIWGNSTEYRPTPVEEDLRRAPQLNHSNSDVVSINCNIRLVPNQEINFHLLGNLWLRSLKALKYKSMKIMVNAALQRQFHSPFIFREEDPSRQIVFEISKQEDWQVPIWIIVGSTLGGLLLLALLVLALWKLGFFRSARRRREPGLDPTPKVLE

rat integrin α11 (rat) = experiment: FACS on rat integrin α11 introduced CHO cells and on cultured rat hepatic stellate cells

binding [1]: binds
binding (rat integrin α11 (rat)): binds
B1: wild-type #33 IgG (anti-integrin α11 monoclonal antibody, chicken-mouse chimeric IgG1) (antibody, V domains shown)
VH: AVTLDESGGGLQTPGGALSLVCKGSGFTFSSYGMQWVRQAPGRGLEWVAGIDDDGSFTLYGAAVDGRATISRDNGQTTVRLQLSDLRAEDTATYFCAKGGYGYCWYGDAACIDAWGHGTEVIVSS
VL: AVTQPSSVSANPGETVKITCSGGSDSWYGWYQQKSPGSAPVTVIYSNNQRPSNIPSRFSGSTSGSTSTLTITGVQADDEAVYFCGSRDSSYDGIFGAGTTLTVLK
notes: Chicken VH linked to a mouse IgG1 constant region and chicken VL linked to a mouse Igκ region; His-tagged at the C-terminal; also called the antibody
